Measurements: patent publication EP0464022B1, “INSULINOTROPIC HORMONE” (THE GENERAL HOSPITAL CORPORATION, priority 1989, dated 2000)
“And” between values parts separate entries of the source, which are not always exact repeats. Equal entries are not always repeated.

Test: Peptide level in rat blood by radioimmunoassay
Type: in vivo

GLP-1 (1-37): GLP-1 polypeptide having all amino acids from 1 (N-terminus) through 37 (C-terminus)
level in rat portal blood: approximately 150 pg/ml and ~50 pM
level in peripheral blood (rat): 50 pg/ml and 15 pM
